# Results: PubChem BioAssay AID504467 (National Center for Advancing Translational Sciences (NCATS), 2011)
# In all, about 330,000 compounds went through this assay and about 7,700 (2.3%) were called active. This list was built around the results that the source calls inconclusive (neither active nor inactive); the mix of calls is not that of the screen. Calls follow the shape of the dose curve; as a rule, active = well fitted inhibition curve with a large enough effect; inconclusive = small, poorly fitted or top-dose-only effect, or effect the other way; inactive = flat fitted curve, though single readings scatter. Where the call is inconclusive, the potency comes from a doubtful curve fit.
# Experiment: qHTS screen for small molecules that inhibit ELG1-dependent DNA repair in human embryonic kidney (HEK293T) cells expressing luciferase-tagged ELG1; also: nearly all actives have a fitted effect of over 55% in size
# Conditions: HEK293T ELG1-luciferase reporter, luminescence, 16 h, DNA damage induced by 5-fluorouridine; series mostly up to 46.1 µM
# Outline: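 Overnight (16 hr) co-exposure of 2,000 cells/well to 5-fluorouridine and compound at 37 °C preceded detection. Luciferase was quantified via ONE-Glo luminescence; loss of signal denotes inhibition.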
# Potency is read from the fitted curve at half-maximal effect.
row,SMILES,Potency
1,COC(=O)c1ccc(Nc2cc(C)nc3ccc(C)cc23)cc1,"inconclusive: 7.3 µM [inhibitor, partial curve, poor fit]"
2,O=C(CN1CCN(c2ccc(O)cc2)CC1)N1CCc2ccccc21,"inconclusive: 25.9 µM [inhibitor, single point]"
3,O=c1c2c(nc3c(-c4ccc(Cl)cc4)c[nH]n13)CCCC2,active: 10.3 µM
4,COc1ccc(C(C)=O)cc1CS(=O)(=O)CC(=O)NCCc1c[nH]c2ccccc12,"inconclusive: 23.1 µM [inhibitor, single point]"
5,Cc1ccc(C(=O)OCC(=O)N2CCOCC2)cc1,"inconclusive: 23.1 µM [activator, single point]"
6,CCOC(=O)C1CCN(C(=O)c2cc3c(-c4ccc(OC)c(OC)c4)nn(C)c3s2)CC1,"inconclusive: 13 µM [inhibitor, partial curve]"
7,CC(=O)n1cc(/C=C2/N=C(c3ccccc3)OC2=O)c2ccccc21,inactive
8,CCC(=O)Nc1sc2c(c1C#N)CCCCC2,"inconclusive: 8.2 µM [activator, single point]"
9,Cc1cc(C)cc(NC(=O)CSc2nc(=O)n3cc(C)ccc3n2)c1,inactive
10,CCCCC/C=C/C1=CC(=O)C[C@H](c2ccc(OC)c(OC)c2)C1,inactive
11,Cc1ccc(-c2cc3ncc(C#N)c(N)n3n2)cc1,"inconclusive: 5.17 µM [activator, partial curve]"
12,Cc1ccc2cc(C3CC(c4cccs4)=NN3S(C)(=O)=O)c(Cl)nc2c1 (centres undefined),"inconclusive: 29.1 µM [inhibitor, single point]"
13,CCNc1nc(NCC)n2c(SCC(=O)Nc3ccc(C)c(C)c3)nnc2n1,inactive
14,Cc1ccc(OCC(=O)Nc2sc3c(c2C#N)CCC3)cc1,"inconclusive: 18.4 µM [activator, partial curve]"
15,CCN(c1ccccc1)S(=O)(=O)c1ccc(C(=O)NCCCN2CCOCC2)cc1,"inconclusive: 20 µM [activator, partial curve, poor fit]"
16,Cc1cc(C(=O)Nc2ccc3c(c2)OCO3)cs1,"inconclusive: 9.2 µM [activator, partial curve, poor fit]"
17,O=C(NCCc1nc2ccccc2[nH]1)/C(=C/c1ccco1)NC(=O)c1ccccc1Br,"inconclusive: 18.4 µM [inhibitor, single point]"
18,CC(C)CCNC1=CC(=O)CC(c2ccccc2)C1 (centres undefined),"inconclusive: 16.4 µM [inhibitor, single point]"
19,Cc1ccc(OCC(=O)Nc2cnn(CCCC(=O)O)c2)c([N+](=O)[O-])c1,inactive
20,COc1cc(OC)cc(C(=O)N[C@H](C(=O)Nc2nc3ccc(S(C)(=O)=O)cc3s2)C(C)C)c1,"inconclusive: 29.1 µM [inhibitor, single point]"
21,COc1ccc2cc(CCNC(=O)c3cccs3)c(=O)[nH]c2c1,"inconclusive: 13 µM [activator, partial curve]"
22,CC(C)Cn1c(-c2csc(C(C)C)c2)n[nH]c1=S,inactive

row,SMILES,Potency
1,CCc1nc(CNC(=O)C2CCC(=O)N(Cc3ccccc3F)C2)no1 (centres undefined),inactive
2,Cc1ccc(C2N3CC4([N+](=O)[O-])CN2CC([N+](=O)[O-])(C3)C4(C)C)cc1 (centres undefined),"inconclusive: 20.6 µM [activator, single point]"
3,O=C(COc1ccccc1F)Nc1ccc2c(c1)CCC2,"inconclusive: 18.3 µM [activator, partial curve]"
4,COc1cccc(CNc2ccccn2)c1O,"inconclusive: 15.8 µM [activator, partial curve]"
5,O=C(COc1ccccc1[N+](=O)[O-])NCC1(N2CCOCC2)CCCCC1,"inconclusive: 29.1 µM [inhibitor, single point]"
6,FC(F)(F)c1ccc(C2[C@H]3CN(Cc4cccnc4)[C@H](c4ccccc4)C34CC2(c2ccccc2)C4)cc1 (some centres undefined),inactive
7,COc1ccc(C2C=C(C34CC5CC(CC(C5)C3)C4)NC(=S)N2)cc1OC (centres undefined),"inconclusive: 29.1 µM [inhibitor, partial curve, poor fit]"
8,Cc1ccc(Sc2nnc(Cc3ccccc3)c3ccccc23)cc1,"inconclusive: 29.1 µM [inhibitor, single point]"
9,CCc1ccc(NC(=O)C(=O)NCC2CCCN2S(=O)(=O)c2cccs2)cc1 (centres undefined),"inconclusive: 29.1 µM [inhibitor, single point]"
10,Cc1cc(O)c(NC(=O)c2cccc([N+](=O)[O-])c2)cc1C,"inconclusive: 14.6 µM [activator, partial curve]"
11,CCOC(=O)c1ccccc1NC(=S)N1CCN(C2CCCCC2)CC1,inactive
12,CC(C)[C@H](NC(=O)N1CCn2c1nc1ccccc12)C(=O)N[C@@H](C(=O)O)c1ccccc1,"inconclusive: 4.61 µM [activator, partial curve, poor fit]"
13,CC1CCCC(NC(=O)COC(=O)CCC(=O)c2ccc(F)cc2)C1C (centres undefined),"inconclusive: 10.3 µM [activator, partial curve, poor fit]"
14,COc1cccc(/C=N/N2C(=O)CSC2=S)c1O,"inconclusive: 16.4 µM [activator, single point]"
15,Cc1nc(NCCc2ccc(S(N)(=O)=O)cc2)c2c(C)c(C)sc2n1,active: 13 µM
16,CCOC(=O)c1c(-c2ccc(C)cc2C)csc1NC(=O)CSc1nnnn1C,"inconclusive: 25.9 µM [inhibitor, partial curve, poor fit]"
17,CC(C)(C(N)=O)c1ccccc1,"inconclusive: 6.51 µM [activator, full curve, poor fit]"
18,CCC(=O)c1ccc(OCC(=O)OCC(=O)NC2CCCCCCC2)cc1,inactive
19,CC(NC(=O)c1ccco1)C(=O)OCC(=O)N1CCCCCC1 (centres undefined),inactive
20,CCOC(=O)c1oc2ccccc2c1CSc1nnnn1-c1ccc(C)cc1,"inconclusive: 16.4 µM [inhibitor, partial curve]"
21,CCc1ccc(-c2cn3nc(-c4ccccc4)cnc3n2)cc1,"inconclusive: 20.6 µM [activator, partial curve]"
22,CCN(CC)c1ccc(/C=N/NC(=O)c2nnn(-c3nonc3N)c2C(C)C)c(O)c1,inactive

# 3 entries already listed, arranged by length of the SMILES, smallest number first:
row,SMILES,Potency
3,O=C(COc1ccccc1F)Nc1ccc2c(c1)CCC2,"inconclusive: 18.3 µM [activator, partial curve]"
11,CCOC(=O)c1ccccc1NC(=S)N1CCN(C2CCCCC2)CC1,inactive
22,CCN(CC)c1ccc(/C=N/NC(=O)c2nnn(-c3nonc3N)c2C(C)C)c(O)c1,inactive
